According to patent publication EP1088233B9, “A BIOLUMINESCENCE RESONANCE ENERGY TRANSFER (BRET) SYSTEM AND ITS USE” (PerkinElmer BioSignal Inc., priority 1998, dated 1999):
No constants are given. Whether binding was seen depends on the method and setting. Some binding calls cover weakened binding; strength is not graded here.

Experiments:
[1] = target: EYFP-CREB-NLS fusion protein (Aequorea victoria; human) (UniProt P16220); test: BRET timecourse in CHO-K1 cells transfected with both constructs, BRETCount, ratio 550/470 nm
[2] = target: EYFP-CREB-NLS fusion protein (Aequorea victoria; human) (UniProt P16220); test: BRET timecourse in CHW-β2 cells transfected with both constructs, BRETCount

- binding [1]: binds
- binding [2]: binds
Substance: Rluc-CBP-NLS fusion protein (from UniProt Q92793 462-661)
